Data as given in publication PMC3830446.

Chains of the proteins cited; added tags and fusions are not shown.
UniProt P30086: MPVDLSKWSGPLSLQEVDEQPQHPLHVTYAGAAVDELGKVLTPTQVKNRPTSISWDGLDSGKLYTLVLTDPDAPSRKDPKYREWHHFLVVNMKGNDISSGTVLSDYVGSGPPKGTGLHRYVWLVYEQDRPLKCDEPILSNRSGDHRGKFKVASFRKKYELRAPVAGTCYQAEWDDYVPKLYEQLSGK
UniProt P62258: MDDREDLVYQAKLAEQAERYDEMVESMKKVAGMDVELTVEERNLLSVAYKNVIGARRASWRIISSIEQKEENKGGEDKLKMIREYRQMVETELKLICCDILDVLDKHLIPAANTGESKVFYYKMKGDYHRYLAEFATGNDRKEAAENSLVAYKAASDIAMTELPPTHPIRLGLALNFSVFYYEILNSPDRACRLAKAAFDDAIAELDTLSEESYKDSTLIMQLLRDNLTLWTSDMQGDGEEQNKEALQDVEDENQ
UniProt P60842: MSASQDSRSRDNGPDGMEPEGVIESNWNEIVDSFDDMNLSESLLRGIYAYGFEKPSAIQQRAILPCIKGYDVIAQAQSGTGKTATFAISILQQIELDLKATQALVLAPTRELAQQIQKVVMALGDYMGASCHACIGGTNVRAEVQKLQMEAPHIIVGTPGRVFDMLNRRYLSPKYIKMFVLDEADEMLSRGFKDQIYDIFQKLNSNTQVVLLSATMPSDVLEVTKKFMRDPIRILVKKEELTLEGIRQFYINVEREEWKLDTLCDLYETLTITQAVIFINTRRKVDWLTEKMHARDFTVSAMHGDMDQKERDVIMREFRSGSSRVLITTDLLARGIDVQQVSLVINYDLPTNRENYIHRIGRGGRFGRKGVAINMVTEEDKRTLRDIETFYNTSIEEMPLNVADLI
UniProt P04264: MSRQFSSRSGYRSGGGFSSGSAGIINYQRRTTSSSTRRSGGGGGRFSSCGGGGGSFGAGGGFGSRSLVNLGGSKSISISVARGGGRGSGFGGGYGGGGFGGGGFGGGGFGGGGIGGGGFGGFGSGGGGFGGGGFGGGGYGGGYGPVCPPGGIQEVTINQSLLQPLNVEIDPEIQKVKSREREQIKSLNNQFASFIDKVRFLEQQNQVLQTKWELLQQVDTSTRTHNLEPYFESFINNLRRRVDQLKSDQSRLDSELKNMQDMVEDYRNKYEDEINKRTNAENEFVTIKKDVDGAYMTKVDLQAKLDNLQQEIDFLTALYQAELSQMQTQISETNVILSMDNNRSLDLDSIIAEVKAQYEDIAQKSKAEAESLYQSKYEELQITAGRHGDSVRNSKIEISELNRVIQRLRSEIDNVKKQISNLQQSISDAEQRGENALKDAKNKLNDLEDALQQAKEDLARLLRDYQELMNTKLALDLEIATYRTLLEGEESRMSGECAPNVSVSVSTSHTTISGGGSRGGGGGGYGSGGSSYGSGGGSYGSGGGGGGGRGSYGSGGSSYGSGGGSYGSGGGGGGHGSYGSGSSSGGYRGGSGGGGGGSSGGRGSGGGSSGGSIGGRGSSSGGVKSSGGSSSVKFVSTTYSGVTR
UniProt P07437: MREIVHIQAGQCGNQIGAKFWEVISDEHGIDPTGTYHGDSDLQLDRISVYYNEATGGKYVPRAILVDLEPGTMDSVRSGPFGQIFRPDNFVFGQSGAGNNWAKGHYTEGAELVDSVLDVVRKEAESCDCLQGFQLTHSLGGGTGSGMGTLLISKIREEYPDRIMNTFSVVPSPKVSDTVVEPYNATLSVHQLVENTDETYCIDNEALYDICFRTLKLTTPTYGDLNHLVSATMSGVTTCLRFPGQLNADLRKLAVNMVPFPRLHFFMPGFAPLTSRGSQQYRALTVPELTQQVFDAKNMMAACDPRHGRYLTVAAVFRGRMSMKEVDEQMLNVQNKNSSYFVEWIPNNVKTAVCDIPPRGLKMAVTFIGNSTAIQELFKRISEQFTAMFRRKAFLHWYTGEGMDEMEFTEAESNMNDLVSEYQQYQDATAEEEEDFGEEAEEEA
UniProt P68104: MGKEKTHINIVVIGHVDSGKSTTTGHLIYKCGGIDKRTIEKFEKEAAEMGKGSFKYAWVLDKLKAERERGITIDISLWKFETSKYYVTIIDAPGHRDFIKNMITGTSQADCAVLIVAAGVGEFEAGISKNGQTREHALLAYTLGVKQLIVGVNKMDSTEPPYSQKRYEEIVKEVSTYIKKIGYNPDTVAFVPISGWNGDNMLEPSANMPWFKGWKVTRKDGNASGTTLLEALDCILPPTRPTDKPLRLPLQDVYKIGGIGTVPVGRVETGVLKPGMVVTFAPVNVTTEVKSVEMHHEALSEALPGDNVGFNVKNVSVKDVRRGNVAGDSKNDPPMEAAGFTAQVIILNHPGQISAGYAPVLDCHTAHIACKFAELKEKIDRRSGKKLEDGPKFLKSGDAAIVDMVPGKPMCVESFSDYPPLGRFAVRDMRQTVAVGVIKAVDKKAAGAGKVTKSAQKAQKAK
UniProt P26641: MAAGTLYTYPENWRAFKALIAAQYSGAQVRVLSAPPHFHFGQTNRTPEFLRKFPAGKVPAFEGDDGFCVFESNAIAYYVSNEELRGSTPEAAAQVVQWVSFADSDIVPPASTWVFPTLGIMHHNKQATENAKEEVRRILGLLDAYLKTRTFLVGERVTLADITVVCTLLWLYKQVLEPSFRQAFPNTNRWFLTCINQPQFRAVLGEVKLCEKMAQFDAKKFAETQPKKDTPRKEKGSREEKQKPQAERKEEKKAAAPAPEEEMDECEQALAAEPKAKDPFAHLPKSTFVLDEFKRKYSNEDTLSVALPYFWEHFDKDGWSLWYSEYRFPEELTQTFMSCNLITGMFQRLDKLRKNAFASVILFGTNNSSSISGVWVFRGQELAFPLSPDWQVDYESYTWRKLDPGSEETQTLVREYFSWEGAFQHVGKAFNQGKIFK
UniProt P53396: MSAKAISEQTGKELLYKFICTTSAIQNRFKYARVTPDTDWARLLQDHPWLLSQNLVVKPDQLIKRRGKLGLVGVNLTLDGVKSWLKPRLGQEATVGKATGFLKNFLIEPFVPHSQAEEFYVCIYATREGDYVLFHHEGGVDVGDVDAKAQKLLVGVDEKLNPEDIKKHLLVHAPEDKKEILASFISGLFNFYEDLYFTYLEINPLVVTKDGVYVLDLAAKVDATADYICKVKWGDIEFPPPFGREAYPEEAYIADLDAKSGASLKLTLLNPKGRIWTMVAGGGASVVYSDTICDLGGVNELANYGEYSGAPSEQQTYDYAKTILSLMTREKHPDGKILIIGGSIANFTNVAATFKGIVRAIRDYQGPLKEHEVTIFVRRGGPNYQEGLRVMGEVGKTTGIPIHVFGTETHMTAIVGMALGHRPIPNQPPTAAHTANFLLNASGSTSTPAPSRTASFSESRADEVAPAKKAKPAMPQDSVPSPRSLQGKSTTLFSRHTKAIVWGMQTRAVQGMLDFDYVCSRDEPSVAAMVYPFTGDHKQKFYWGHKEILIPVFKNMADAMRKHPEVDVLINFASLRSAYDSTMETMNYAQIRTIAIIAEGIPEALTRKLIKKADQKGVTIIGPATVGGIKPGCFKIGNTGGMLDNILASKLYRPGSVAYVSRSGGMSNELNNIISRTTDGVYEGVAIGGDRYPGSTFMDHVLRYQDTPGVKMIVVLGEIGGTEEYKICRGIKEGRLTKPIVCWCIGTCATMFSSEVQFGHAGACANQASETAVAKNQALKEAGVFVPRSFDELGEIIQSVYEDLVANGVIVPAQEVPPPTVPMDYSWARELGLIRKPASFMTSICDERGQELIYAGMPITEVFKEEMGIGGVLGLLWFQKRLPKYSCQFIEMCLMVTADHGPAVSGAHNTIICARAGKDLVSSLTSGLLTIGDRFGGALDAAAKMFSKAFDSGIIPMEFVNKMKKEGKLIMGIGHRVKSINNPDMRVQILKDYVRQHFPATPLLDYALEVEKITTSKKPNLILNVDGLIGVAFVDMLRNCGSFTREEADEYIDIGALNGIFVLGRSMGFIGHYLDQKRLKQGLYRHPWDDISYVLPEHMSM
UniProt O75369: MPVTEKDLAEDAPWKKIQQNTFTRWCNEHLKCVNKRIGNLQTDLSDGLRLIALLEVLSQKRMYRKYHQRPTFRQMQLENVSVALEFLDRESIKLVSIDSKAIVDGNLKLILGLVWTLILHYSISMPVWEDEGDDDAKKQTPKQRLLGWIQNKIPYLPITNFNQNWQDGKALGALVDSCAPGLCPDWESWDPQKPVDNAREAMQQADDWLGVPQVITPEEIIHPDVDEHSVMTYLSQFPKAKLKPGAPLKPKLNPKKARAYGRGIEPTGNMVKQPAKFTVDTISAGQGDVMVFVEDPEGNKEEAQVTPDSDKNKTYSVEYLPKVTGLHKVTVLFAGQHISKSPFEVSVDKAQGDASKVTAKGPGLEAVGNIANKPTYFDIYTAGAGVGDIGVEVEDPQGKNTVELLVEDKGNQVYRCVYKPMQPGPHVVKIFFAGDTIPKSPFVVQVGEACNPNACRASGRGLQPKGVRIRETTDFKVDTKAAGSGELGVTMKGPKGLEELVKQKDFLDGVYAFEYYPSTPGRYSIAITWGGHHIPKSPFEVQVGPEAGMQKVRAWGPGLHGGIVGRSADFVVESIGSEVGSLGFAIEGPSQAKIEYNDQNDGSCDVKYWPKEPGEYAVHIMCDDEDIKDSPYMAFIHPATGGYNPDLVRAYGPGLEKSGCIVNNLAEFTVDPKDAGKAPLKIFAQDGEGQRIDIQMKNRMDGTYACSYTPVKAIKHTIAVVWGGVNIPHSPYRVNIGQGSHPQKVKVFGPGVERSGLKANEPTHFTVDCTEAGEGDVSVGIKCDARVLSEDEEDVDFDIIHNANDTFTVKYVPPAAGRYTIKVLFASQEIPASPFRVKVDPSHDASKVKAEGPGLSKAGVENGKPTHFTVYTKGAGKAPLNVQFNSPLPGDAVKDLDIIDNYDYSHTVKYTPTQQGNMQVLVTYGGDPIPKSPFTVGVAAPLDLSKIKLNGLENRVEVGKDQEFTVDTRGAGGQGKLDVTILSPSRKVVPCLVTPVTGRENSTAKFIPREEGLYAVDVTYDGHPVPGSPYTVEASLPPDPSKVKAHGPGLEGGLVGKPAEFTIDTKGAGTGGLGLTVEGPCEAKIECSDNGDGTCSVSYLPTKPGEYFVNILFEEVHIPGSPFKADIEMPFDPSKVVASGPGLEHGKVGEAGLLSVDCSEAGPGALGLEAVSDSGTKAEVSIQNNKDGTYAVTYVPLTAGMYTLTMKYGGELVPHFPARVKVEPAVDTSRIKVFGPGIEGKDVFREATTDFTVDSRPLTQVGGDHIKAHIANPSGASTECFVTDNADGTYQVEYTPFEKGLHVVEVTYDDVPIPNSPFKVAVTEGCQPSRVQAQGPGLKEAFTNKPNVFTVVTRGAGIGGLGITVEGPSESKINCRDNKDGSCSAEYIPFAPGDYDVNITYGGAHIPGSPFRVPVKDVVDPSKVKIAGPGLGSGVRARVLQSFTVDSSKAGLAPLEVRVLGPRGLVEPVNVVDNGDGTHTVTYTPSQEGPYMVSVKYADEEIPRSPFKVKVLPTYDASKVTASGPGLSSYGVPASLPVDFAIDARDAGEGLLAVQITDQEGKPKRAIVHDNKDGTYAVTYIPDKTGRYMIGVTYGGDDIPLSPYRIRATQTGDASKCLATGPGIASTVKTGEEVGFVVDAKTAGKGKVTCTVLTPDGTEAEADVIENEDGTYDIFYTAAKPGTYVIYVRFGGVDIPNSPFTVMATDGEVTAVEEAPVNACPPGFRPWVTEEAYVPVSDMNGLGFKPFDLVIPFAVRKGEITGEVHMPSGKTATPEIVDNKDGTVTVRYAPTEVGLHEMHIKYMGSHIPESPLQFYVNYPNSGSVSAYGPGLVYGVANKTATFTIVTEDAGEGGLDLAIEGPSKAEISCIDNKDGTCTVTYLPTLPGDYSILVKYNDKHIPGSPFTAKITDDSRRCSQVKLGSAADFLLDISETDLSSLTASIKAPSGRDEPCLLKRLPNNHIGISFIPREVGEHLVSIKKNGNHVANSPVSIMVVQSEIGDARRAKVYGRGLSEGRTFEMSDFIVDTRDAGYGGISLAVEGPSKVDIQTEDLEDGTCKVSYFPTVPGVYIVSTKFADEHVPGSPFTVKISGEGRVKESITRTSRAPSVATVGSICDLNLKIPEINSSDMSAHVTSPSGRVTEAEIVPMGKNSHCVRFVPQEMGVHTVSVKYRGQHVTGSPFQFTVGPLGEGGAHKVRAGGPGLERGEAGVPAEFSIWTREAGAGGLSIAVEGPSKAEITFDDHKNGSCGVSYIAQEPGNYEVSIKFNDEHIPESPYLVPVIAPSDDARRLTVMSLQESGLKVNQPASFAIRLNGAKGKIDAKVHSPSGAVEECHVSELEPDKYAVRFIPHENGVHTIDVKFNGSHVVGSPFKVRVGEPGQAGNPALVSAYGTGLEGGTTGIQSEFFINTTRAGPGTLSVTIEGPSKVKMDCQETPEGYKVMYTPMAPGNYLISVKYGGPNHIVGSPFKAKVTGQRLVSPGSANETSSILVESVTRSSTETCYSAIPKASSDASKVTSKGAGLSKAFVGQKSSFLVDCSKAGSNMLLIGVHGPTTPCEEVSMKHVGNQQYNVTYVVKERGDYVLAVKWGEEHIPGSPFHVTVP

What follows are substances tested against RKIP-3xFLAG fusion protein (UniProt P30086) (assay: affinity purification with mass spectrometry; RKIP-3xFLAG from transfected SGC7901 cells held on anti-FLAG M2 magnetic beads (overnight, 4°C); 1D SDS-PAGE, in-gel trypsin digestion, ESI-Q-TOF MS/MS; 3xFLAG (blank carrier) and blank groups as controls; repeated three times).

binding, binds:
14-3-3 protein epsilon (from UniProt P62258 1-255)
Heat shock protein HSP 90-beta (from UniProt P08238 1-724)
Glutathione S-transferase P (from UniProt P09211 1-210)
Endoplasmin (from UniProt P14625 22-803)
Annexin A5 (from UniProt P08758 1-320)
Eukaryotic initiation factor 4A-I (from UniProt P60842 1-406)
Puromycin-sensitive aminopeptidase (from UniProt P55786 1-919)
Voltage-dependent anion-selective channel protein 1 (from UniProt P21796 1-283)
Transitional endoplasmic reticulum ATPase (from UniProt P55072 1-806)
Keratin, type II cytoskeletal 1 (from UniProt P04264 1-644)
Alpha-enolase (from UniProt P06733 1-434)
Coatomer subunit beta (from UniProt P53618 1-953)
Vinculin, isoform 1 (from UniProt P18206-2)
Tubulin beta chain (from UniProt P07437 1-444)
Elongation factor 1-alpha 1 (from UniProt P68104 1-462)
Ras GTPase-activating-like protein IQGAP1 (from UniProt P46940 1-1657)
Elongation factor 1-gamma (from UniProt P26641 1-437)
Vimentin (from UniProt P08670 1-466)
Alkaline phosphatase, placental-like (from UniProt P10696 20-503)
Keratin, type I cytoskeletal 17 (from UniProt Q04695 1-432)
ATP-citrate synthase (from UniProt P53396 1-1101)
Proteasome activator complex subunit 3, isoform 1 (from UniProt P61289 1-254)
Tubulin beta-2C chain (from UniProt P68371 1-445)
Myosin-9, isoform 1 (from UniProt P35579 1-1960)
Pyruvate kinase isozymes M1/M2, isoform M2 (from UniProt P14618 1-531)
Transcription intermediary factor 1-beta, isoform 1 (from UniProt Q13263 1-835)
Clathrin heavy chain 1, isoform 1 (from UniProt Q00610 1-1675)
Heat shock cognate 71 kDa protein, isoform 1 (from UniProt P11142 1-646)
Glyceraldehyde-3-phosphate dehydrogenase (from UniProt P04406 1-335)
Filamin-B, isoform 1 (from UniProt O75369 1-2602)
Stress-70 protein, mitochondrial (from UniProt P38646 47-679)
Importin subunit beta-1 (from UniProt Q14974 1-876)
60 kDa heat shock protein, mitochondrial (from UniProt P10809 27-573)

No constants are given. Whether binding was seen depends on the method and setting. In cells and extracts the contact can be indirect. These calls come from enrichment with a bait or labelling near it, and not all partners need be listed.
